Experimental data: publication PMC4820699

The chains behind the UniProt entries cited, without tags or fusion partners.
UniProt B5Z6X0: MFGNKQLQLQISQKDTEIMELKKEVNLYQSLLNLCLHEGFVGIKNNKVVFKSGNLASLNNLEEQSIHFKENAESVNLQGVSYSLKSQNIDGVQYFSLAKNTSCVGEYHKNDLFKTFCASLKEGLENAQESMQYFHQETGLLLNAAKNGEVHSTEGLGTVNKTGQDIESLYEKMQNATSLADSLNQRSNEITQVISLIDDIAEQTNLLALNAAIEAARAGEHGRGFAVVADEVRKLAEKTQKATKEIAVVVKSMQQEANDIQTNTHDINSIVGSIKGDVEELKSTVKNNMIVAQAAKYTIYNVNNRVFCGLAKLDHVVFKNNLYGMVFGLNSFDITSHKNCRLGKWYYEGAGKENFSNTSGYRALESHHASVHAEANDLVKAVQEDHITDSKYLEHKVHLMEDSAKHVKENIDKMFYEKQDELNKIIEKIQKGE
UniProt P77872: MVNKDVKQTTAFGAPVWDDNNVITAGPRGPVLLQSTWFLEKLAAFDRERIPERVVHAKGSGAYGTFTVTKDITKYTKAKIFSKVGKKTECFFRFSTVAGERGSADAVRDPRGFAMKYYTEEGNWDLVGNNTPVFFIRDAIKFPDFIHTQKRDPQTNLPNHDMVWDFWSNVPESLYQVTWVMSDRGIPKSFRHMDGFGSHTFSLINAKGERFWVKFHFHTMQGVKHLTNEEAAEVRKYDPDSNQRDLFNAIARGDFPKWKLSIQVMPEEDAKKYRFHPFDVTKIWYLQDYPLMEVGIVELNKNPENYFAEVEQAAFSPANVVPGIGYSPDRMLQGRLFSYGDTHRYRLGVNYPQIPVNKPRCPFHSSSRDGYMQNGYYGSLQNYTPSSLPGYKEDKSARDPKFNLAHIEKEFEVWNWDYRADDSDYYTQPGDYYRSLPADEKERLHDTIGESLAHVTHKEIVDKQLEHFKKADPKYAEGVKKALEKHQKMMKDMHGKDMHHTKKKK

Biological target: histidine-tagged TlpD (TlpD-Hisx6) (H. pylori) (UniProt B5Z6X0)
Assay: affinity purification with mass spectrometry; TlpD-Hisx6 pulled down on Talon (Cobalt2+-coupled) beads from cleared lysates of plate-grown H. pylori N6 tlpD (TlpD-Hisx6); bands >82 kDa seen only against the tlpD mutant control were cut from Coomassie-stained 12% SDS gels and analysed by MS/MS; two independent experiments

Q: For “catalase KatA (from UniProt P77872 1-505) (enzyme)”, which binding is on record?
A: Its binding is “binds”.

No constants are given. Whether binding was seen depends on the method and setting. In cells and extracts the contact can be indirect. Here binding means that the protein was enriched with, or labelled near, the bait; the list need not be complete.
